Experimental data taken from PubChem BioAssay AID2685 (National Center for Advancing Translational Sciences (NCATS), 2010).
The list shows a part of the results. These are further read-outs of the screen, such as a control signal, another cell line or another target. No call is given for them. Most of these compounds were active or inconclusive in the main read-out, so they are no random draw. Potencies come from curve fits of mixed quality, noted in brackets.

Assay: qHTS Assay for Lipid Storage Modulators in Drosophila S3 Cells;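 as to cell number change: cells counted by Cell Tracker Red CMTPX staining in the red channel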
Conditions: BODIPY lipid droplet fluorescence, 18-24 h; for cell number change: measured here: cell count max response, cells fed with added oleic acid
How it was run: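 Drosophila S3 cells loaded with oleic acid (400 uM, as added) and compounds at several concentrations; lipid droplets imaged by 488-nm laser-scanning cytometry, 500–530 nm intensity and object ratio to cell channel. Percent activity normalized to 20 uM Triacsin C.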

[1] = measured here: lipid fluorescence (Fed channel) AC50, cells fed with added oleic acid
[2] = measured here: cell number channel AC50, cells fed with added oleic acid

Row | SMILES | cell number change [%] | AC50 [1] | AC50 [2]
1 | COc1ccc(NC(=O)CN(C)C(C)C(=O)N2CCCCC2)cc1 (centres undefined) | 4.86 | – | –
2 | CCOC(=O)C(/C(C)=N/NC(=O)C1CC1c1ccccc1)C(C)C (centres undefined) | 7.31 | 18.4 µM [rising, single point] | –
3 | Cc1csc(=O)n1CCC(=O)OCC(=O)Nc1ncc(Cl)cc1Cl | 15.5 | 0.651 µM [falling, full curve, poor fit] | –
4 | O=C(Nc1ccc(F)cc1)c1ccc(CSc2ccccc2)o1 | 21.7 | 25.9 µM [rising, single point] | –
5 | C=CCNS(=O)(=O)c1ccc(OCC(=O)OC)cc1 | -13.5 | 0.164 µM [falling, full curve, poor fit] | –
6 | N#Cc1cc2cc3c(cc2nc1SCC(=O)N1CCOCC1)OCCO3 | -5.13 | – | –
7 | Cc1nc2ccccn2c1/C(O)=C1\C(=O)C(=O)N(CCN(C)C)C1c1ccco1 (centres undefined) | – | 0.116 µM [falling, full curve, poor fit] | –
8 | CCc1ccccc1NC(=O)CCCN1C(=O)C2CC=CCC2C1=O (centres undefined) | 6.14 | – | –
9 | Cc1[nH]c2ccccc2c1C(=O)NS(=O)(=O)Nc1ccc(Cl)cc1 | -43.6 | 1.16 µM [falling, full curve] | 3.26 µM [falling, partial curve, poor fit]
10 | COc1ccc(OC)c(CN2CCN(C(=O)c3ccc(F)cc3)CC2)c1 | 4.21 | – | –
11 | COC(=O)c1cn(Nc2ncc(C(F)(F)F)cc2Cl)c(=O)c2ccccc12 | 3.73 | – | –
12 | CCCCN1C(=O)C(=O)N(CC(=O)Nc2cc(S(=O)(=O)N(C)C)ccc2C)C1=O | -21.3 | – | –
13 | O=C(COC(=O)C1CCC1)NCc1ccc(Cl)cc1Cl | -26.4 | 5.17 µM [falling, full curve, poor fit] | 0.82 µM [falling, full curve, poor fit]
14 | O=C(Nn1cnc2ccccc2c1=O)c1c(F)cccc1F | -2.7 | 0.58 µM [rising, single point] | –
15 | O=C1Nc2ccccc2C12OCCS2 (centres undefined) | -1.44 | 1.84 µM [falling, partial curve, poor fit] | –
16 | Cc1cc(-c2nc3ccccc3o2)c2ccccc2n1 | 44.1 | 18.4 µM [rising, single point] | 5.17 µM [rising, partial curve]
17 | O=C(COc1ccccc1)Nc1ccc2oc(=O)ccc2c1 | 25.2 | 6.51 µM [falling, single point] | –
18 | Cc1[nH]c2ccccc2c1C(=O)NS(=O)(=O)Nc1ccccc1 | 11.8 | – | 6.51 µM [rising, single point]
19 | Cc1csc(=NC(=O)c2ccccc2)n1Cc1ccco1 | -0.912 | 1.84 µM [rising, full curve] | –

2 records picked at random from the list so far, as already listed:
Row | SMILES | cell number change [%] | AC50 [1] | AC50 [2]
7 | Cc1nc2ccccn2c1/C(O)=C1\C(=O)C(=O)N(CCN(C)C)C1c1ccco1 (centres undefined) | – | 0.116 µM [falling, full curve, poor fit] | –
11 | COC(=O)c1cn(Nc2ncc(C(F)(F)F)cc2Cl)c(=O)c2ccccc12 | 3.73 | – | –
